# Laboratory results taken from PubChem BioAssay (EPA / NIEHS).
# Protein sequences, listed by entry. Tags and fused reporters are not part of them. Lines headed by an entry give the natural chain unless they say otherwise; changes in a name come on top.
# UniProt P10275: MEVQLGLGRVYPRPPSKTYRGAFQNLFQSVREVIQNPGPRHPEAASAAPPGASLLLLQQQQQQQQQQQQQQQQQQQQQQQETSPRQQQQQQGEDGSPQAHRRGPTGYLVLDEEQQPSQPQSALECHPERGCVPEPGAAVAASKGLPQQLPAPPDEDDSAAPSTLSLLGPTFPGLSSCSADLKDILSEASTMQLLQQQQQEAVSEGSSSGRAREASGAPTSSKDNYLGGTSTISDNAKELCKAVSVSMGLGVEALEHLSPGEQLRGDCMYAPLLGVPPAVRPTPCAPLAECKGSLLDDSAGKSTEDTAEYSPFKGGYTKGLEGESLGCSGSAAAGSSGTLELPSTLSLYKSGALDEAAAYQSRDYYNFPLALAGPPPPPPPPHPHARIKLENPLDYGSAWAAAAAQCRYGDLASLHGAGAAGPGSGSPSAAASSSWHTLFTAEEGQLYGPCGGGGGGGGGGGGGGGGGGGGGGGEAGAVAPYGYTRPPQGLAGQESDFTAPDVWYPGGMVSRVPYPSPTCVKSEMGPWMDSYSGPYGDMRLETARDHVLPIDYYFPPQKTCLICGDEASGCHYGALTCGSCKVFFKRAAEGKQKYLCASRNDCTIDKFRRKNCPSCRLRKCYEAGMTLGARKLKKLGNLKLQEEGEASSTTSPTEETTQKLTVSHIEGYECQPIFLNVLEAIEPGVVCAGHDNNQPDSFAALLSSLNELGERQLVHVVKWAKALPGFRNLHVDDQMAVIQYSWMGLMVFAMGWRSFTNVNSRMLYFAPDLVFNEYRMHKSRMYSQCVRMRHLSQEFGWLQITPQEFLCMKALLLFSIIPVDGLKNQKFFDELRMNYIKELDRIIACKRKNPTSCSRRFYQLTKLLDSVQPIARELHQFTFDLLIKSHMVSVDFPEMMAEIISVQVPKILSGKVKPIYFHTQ
# UniProt Q96RI1: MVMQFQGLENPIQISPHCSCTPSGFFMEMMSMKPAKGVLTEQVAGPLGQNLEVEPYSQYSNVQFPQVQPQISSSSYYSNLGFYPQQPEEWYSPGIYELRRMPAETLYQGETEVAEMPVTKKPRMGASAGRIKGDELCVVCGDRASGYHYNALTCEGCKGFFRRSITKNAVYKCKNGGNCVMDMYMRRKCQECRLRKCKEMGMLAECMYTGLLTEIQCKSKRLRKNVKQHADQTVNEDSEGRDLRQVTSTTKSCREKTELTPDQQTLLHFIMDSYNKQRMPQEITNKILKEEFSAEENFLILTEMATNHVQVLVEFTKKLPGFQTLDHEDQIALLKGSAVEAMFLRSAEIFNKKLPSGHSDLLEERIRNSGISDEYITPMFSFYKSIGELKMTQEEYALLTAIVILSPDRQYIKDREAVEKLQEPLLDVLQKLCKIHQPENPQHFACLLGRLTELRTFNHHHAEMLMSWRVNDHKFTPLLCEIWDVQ
# UniProt Q9UNQ0: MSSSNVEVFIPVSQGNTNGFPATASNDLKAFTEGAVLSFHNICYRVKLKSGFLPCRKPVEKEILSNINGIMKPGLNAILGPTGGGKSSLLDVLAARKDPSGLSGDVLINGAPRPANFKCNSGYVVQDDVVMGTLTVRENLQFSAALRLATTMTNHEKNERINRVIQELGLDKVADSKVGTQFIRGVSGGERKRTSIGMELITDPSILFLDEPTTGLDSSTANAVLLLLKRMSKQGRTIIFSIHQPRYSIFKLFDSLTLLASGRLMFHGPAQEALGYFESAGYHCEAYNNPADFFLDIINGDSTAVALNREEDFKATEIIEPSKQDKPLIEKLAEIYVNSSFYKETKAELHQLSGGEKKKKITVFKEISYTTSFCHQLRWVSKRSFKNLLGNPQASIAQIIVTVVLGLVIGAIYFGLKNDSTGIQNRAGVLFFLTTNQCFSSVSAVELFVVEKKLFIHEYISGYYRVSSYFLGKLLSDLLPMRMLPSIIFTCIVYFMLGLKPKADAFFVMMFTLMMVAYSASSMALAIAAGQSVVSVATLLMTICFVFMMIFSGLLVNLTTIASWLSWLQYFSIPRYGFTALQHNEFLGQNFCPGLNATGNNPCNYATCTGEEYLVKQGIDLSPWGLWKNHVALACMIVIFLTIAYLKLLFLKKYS
# Where “and” joins values, the source holds several entries; their conditions need not be identical. Equal values may be shown once. Inconclusive means that the source gave no clear call. Such entries were picked first, then a sample of the others. A potency beside an inconclusive call is a rough fit, not a confirmed value. Calls of active or inactive are those of the source. The calls were made as follows: active = hit-call score of the fitted dose curve at least 0.9, where 1 is the maximum; inconclusive = response in the unintended direction; inactive = score below 0.9.
# Key:
# [1] = biological target: Androgen receptor (Homo sapiens) (UniProt P10275); experiment: ATG_AR_TRANS: Attagene TRANS-FACTORIAL HepG2 Assay for human Androgen Receptor (AR) (AID 2282973); settings: HepG2 Attagene TRANS-FACTORIAL AR reporter transcription
# How it was run: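 Chimeric nuclear receptor–Gal4 activity was assessed in human HepG2 hepatocytes after 24 h chemical dosing. Induced reporter mRNA was detected via labelled RT-PCR fragments on capillary electrophoresis, and gain of signal was analysed against DMSO.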
# [2] = Tanguay_ZF_120hpf_TRUN_legacy: (Legacy) Oregon State University Tanguay Lab 120 Hour Post-fertilization zebrafish Assay for Truncated Body (AID 2283655)
# How it was run: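 Single dechorionated zebrafish embryos received test chemical from 6 hpf in 0.64% DMSO, kept at 28C. At 120 hpf, brightfield inspection noted any truncated body.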
# [3] = read-out: ABC Transporter (ABCB1), ABCB1 (gene 5243); experiment: CLD_ABCB1_48hr: CellzDirect (CLD) Gene Expression Assay for ABC Transporter (ABCB1) at 48 hours (AID 2283695);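 as to AC50: potency for induction meaning increase of mRNA over DMSO vehicle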
# How it was run: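 ABCB1 mRNA was measured by quantitative nuclease protection assay (chemiluminescence) 48 h after dosing. Human hepatocyte cultures from two separate donors received fresh dosing solutions daily for two days, with 0.2% DMSO as vehicle. Positive-direction fit against DMSO.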
# [4] = biological target: Bile acid receptor (Homo sapiens) (UniProt Q96RI1); experiment: OT_FXR_FXRSRC1_0480: Odyssey Thera (OT) 8-hour HEK293T Protein-Complementation Assay for Farnesoid X receptor/SRC-1 Co-activator (AID 2283383)
# How it was run: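 Binding of FXR to coactivator SRC-1 was read as fluorescence from a reconstituted split reporter in HEK293T cells, 8 h after chemical addition. Only increases in signal versus DMSO were fit.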
# [5] = biological target: Bile acid receptor (Homo sapiens) (UniProt Q96RI1); experiment: OT_FXR_FXRSRC1_1440: Odyssey Thera (OT) 24-hour HEK293T Protein-Complementation Assay for Farnesoid X receptor/SRC-1 Co-activator (AID 2283384)
# How it was run: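 Protein-fragment complementation: FXR and SRC-1 fused to reporter fragments that reassemble on interaction, read by fluorescence intensity. Human HEK293T cells measured 24 h post-dose; positive-direction fit versus DMSO.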
# [6] = Tanguay_ZF_120hpf_AXIS_legacy: (Legacy) Oregon State University Tanguay Lab 120 Hour Post-fertilization zebrafish Assay for Body Axis Malformation (AID 2283635);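 also: potency for an increased fraction of larvae scored with body axis malformation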
# How it was run: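 Each dechorionated embryo was exposed alone from 6 hpf, with DMSO at 0.64% (vol/vol) and trimethyltin chloride 5 uM as positive control. Axis malformation was recorded at 120 hpf unless the embryo had died.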
# [7] = Tanguay_ZF_120hpf_SOMI_legacy: (Legacy) Oregon State University Tanguay Lab 120 Hour Post-fertilization zebrafish Assay for Somite Malformation (AID 2283647)
# How it was run: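 Somitogenesis defects are recorded as binary calls in whole larvae at 120 hpf after continuous static chemical exposure starting at 6 hpf in dechorionated 5D embryos. DMSO serves as negative control and baseline.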
# [8] = read-out: xenobiotic metabolism (CYP2C9), CYP2C9 (gene 1559); experiment: CLD_CYP2C9_6hr: CellzDirect (CLD) Gene Expression Assay for xenobiotic metabolism (CYP2C9) at 6 hours (AID 2283664)
# How it was run: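 Readout is qNPA chemiluminescence of CYP2C9 mRNA, taken 6 h after dosing of cultured human liver primary cells at several concentrations. Activity is the increase over 0.2% DMSO baseline. Morphology-based cytotoxicity flagged yes/no.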
# [9] = CLD_ACTIN_48hr: CellzDirect (CLD) Gene Expression Assay for Baseline Control (Actin) at 48 hours (AID 2283702)
# How it was run: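 Background-control actin mRNA read by qNPA chemiluminescence at 48 h. Human hepatocyte cultures from two donors received fresh multi-concentration chemical doses daily for two days; 0.2% DMSO served as vehicle baseline.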
# [10] = read-out: xenobiotic metabolism (CYP1A1), CYP1A1 (gene 1543); experiment: CLD_CYP1A1_48hr: CellzDirect (CLD) Gene Expression Assay for xenobiotic metabolism (CYP1A1) at 48 hours (AID 2283705)
# How it was run: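 CYP1A1 transcript measured by quantitative nuclease protection (chemiluminescent) 48 h after two daily treatments of human hepatocyte cultures, versus 0.2% DMSO. Morphology-based cytotoxicity flags accompany data; two donor preparations used.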
# [11] = read-out: ABC Transporter (ABCB1), ABCB1 (gene 5243); experiment: CLD_ABCB1_6hr: CellzDirect (CLD) Gene Expression Assay for ABC Transporter (ABCB1) at 6 hours (AID 2283659)
# How it was run: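 ABCB1 transcript measured by quantitative nuclease protection assay, chemiluminescent read-out, 6 h after dosing human hepatocyte cultures (0.2% DMSO vehicle, daily redosing). Activity fitted as increase over DMSO baseline; cytotoxicity flagged by phase-contrast morphology.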
# [12] = read-out: Broad substrate specificity ATP-binding cassette transporter ABCG2 (Homo sapiens) (UniProt Q9UNQ0); experiment: CLD_ABCG2_6hr: CellzDirect (CLD) Gene Expression Assay for ABC Transporter (ABCG2) at 6 hours (AID 2283660)
# How it was run: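 ABCG2 mRNA induction measured by qNPA chemiluminescence in human primary hepatocyte cultures, 6 h post-dose. Chemicals tested at several concentrations against a 0.2% DMSO vehicle; positive-direction fit relative to DMSO.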
# [13] = read-out: ABC Transporter (ABCB1), ABCB1 (gene 5243); experiment: CLD_ABCB1_24hr: CellzDirect (CLD) Gene Expression Assay for ABC Transporter (ABCB1) at 24 hours (AID 2283684);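 as to AC50: potency for increase in ABCB1 mRNA relative to DMSO vehicle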
# How it was run: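 ABCB1 mRNA induction versus 0.2% DMSO vehicle was read by qNPA chemiluminescence at 24 h. Cultured human hepatocytes from two donor preparations received daily fresh dosing, and phase-contrast cytotoxicity calls were annotated alongside the data.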
# [14] = read-out: sulfotransferase (SULT2A), SULT2A1 (gene 6822); experiment: CLD_SULT2A_48hr: CellzDirect (CLD) Gene Expression Assay for sulfotransferase (SULT2A) at 48 hours (AID 2283710);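 also: hits raise SULT2A1 transcript above the 0.2% DMSO vehicle baseline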
# How it was run: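 SULT2A1 transcript measured by qNPA chemiluminescence in human primary hepatocyte cultures after 48 h, with fresh dosing solutions on two consecutive days; gain-of-signal fitting against 0.2% DMSO vehicle; cytotoxicity annotated from phase-contrast morphology.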
# [15] = ACEA_AR_agonist_AUC_viability: ACEA Biosciences xCELLigence Real-Time Cell Analysis on Androgen Receptor Agonism for Viability (AID 2283775);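 as to AC50: viability read 80 hours after compound addition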
# How it was run: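 22Rv1 cells; impedance growth kinetics; 8-pt 1:4 dilutions from 100 uM top final, ≤0.5% DMSO; n = 2; 80 h read; AUC viability, loss-of-signal vs DMSO.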
# [16] = biological target: Nucleoli Translocation, AR (gene 367) (UniProt P10275); experiment: UPITT_HCI_U2OS_AR_TIF2_Nucleoli_Agonist: University of Pittsburgh U2OS Androgen Receptor-Transcriptional Intermediary Factor 2 (AR-TIF2) Agonism High Content Imaging Assay for Nucleoli Translocation (AID 2283998)
# How it was run: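 High-content images quantify nucleolar accumulation of RFP-fused AR in cells also expressing GFP-TIF2; the endpoint is fitted as signal gain versus DMSO controls across final concentrations of 0.195 to 50 uM.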
# [17] = system: turtle Androgen Receptor (AR), gene 101947425; experiment: ATG_trAR_XSP2: Attagene TRANS-FACTORIAL Multi-Species (XSP2) HepG2 Assay for turtle Androgen Receptor (AR) (AID 2283815);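 as to AC50: reporter mRNA from a Gal4 chimera of turtle AR measured by RT-PCR; potency for gain of reporter signal meaning activation above DMSO baseline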
# How it was run: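 Reporter transcripts were quantified via RT-PCR and capillary electrophoresis and fitted upward against DMSO. Transiently transfected human HepG2 cells carrying NR-Gal4 chimeras were exposed 24 h, with 3 nM 6-alpha-fluorotestosterone plus 1.5 nM norgestrel added.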
# [18] = Tanguay_ZF_120hpf_NC_legacy: (Legacy) Oregon State University Tanguay Lab 120 Hour Post-fertilization zebrafish Assay for Notochord and Tail Malformation (AID 2283656)
# How it was run: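 Binary scoring of notochord distortion by brightfield microscopy; embryos dying were not scored. Wild-type Tropical 5D embryos, chorion removed, exposed singly and statically from 6 to 120 hpf, 28C, sealed, 0.64% DMSO.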
# [19] = biological target: AR (gene 367) (UniProt P10275); experiment: ACEA_AR_agonist_80hr: ACEA Biosciences xCELLigence Real-Time Cell Analysis on Androgen Receptor Agonism for Proliferation (AID 2283783);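 also: hits increase impedance growth signal above DMSO baseline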
# How it was run: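 Eight concentrations, 1:4 serial dilution from a 100 uM final top, in biological duplicate. Impedance-based real-time growth of 22Rv1 cells after overnight baseline, recorded hourly and read at 80 hours. Controls: testosterone, MG132, assay media.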
# [20] = Tanguay_ZF_120hpf_CIRC_legacy: (Legacy) Oregon State University Tanguay Lab 120 Hour Post-fertilization zebrafish Assay for Circulatory Malformation (AID 2283651)
# How it was run: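 Binary circulatory malformation call at 120 hpf by brightfield imaging of zebrafish larvae; chorion removed at 4 hpf, static exposure from 6 hpf in sealed dark plates at 28C, final DMSO 0.64%; non-mortality endpoints skipped if embryo died.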
structure (smiles),measurement,setting,value
N#Cc1ccc(O)cc1,AC50,[1],inconclusive: 100 µM
COc1cc(Cl)c(OC)cc1Cl,AC50,[2],inconclusive: 202 µM
same,AC50,[3],inconclusive: 20 µM
ClC1C(Cl)C(Cl)C(Cl)C(Cl)C1Cl (stereo not given),outcome,[4],inactive
same,AC50,[5],inconclusive: 9.92 µM
same,AC50,[6],inconclusive: 77 µM
same,outcome,[7],inactive
same,AC50,[2],inconclusive: 17.8 µM
same,AC50,[8],inconclusive: 0.0004 µM
same,AC50,[9],inconclusive: 3.48 µM
same,AC50,[10],inconclusive: 0.0664 µM
CC1=C(C(=O)Nc2ccccc2)SCCO1,AC50,[1],inconclusive: 50 µM
same,outcome,[4],inactive
same,AC50,[7],inconclusive: 0.234 µM
same,AC50,[11],inconclusive: 11.5 µM
same,AC50,[12],inconclusive: 20 µM
same,AC50,[13],inconclusive: 20 µM
same,AC50,[3],inconclusive: 13.1 µM
same,AC50,[9],inconclusive: 20 µM
same,AC50,[14],inconclusive: 0.505 µM
same,AC50,[15],inconclusive: 0.0559 µM
same,AC50,[16],inconclusive: 50 µM
c1ccc(NNc2ccccc2)cc1,outcome,[5],inactive
same,AC50,[6],inconclusive: 3.12 µM
CCCCC(CC)COC(=O)c1ccc(C(=O)OCC(CC)CCCC)c(C(=O)OCC(CC)CCCC)c1 (stereo not given),AC50,[15],inconclusive: 0.244 µM
same,AC50,[17],inconclusive: 180 µM and inconclusive: 156 µM
same,AC50,[16],inconclusive: 50 µM
O=NN(c1ccccc1)c1ccccc1,outcome,[4],inactive
same,AC50,[2],inconclusive: 156 µM
COC(=O)c1ccccc1S(=O)(=O)NC(=O)Nc1nc(C)nc(OC)n1,AC50,[12],inconclusive: 20 µM
same,AC50,[8],inconclusive: 2.39 µM
same,AC50,[10],inconclusive: 1.88 µM
Nc1ccc([N+](=O)[O-])cc1,AC50,[1],inconclusive: 100 µM
same,AC50,[4],inconclusive: 50 µM
same,outcome,[18],inactive
same,AC50,[19],inconclusive: 50 µM
same,AC50,[16],inconclusive: 50 µM
O=C(CBr)OCc1ccccc1,AC50,[5],inconclusive: 50 µM
CCCC1COC(Cn2cncn2)(c2ccc(Cl)cc2Cl)O1 (stereo not given),AC50,[5],inconclusive: 86.6 µM
same,AC50,[12],inconclusive: 20 µM
same,AC50,[8],inconclusive: 20 µM
same,outcome,[14],inactive
same,outcome,[19],inactive
same,AC50,[17],inconclusive: 26.3 µM
CCOC(=O)C(O)(c1ccc(Cl)cc1)c1ccc(Cl)cc1,AC50,[7],inconclusive: 35.6 µM
same,AC50,[20],inconclusive: 79.5 µM
same,outcome,[19],inactive
same,AC50,[17],inconclusive: 3.07 µM and inconclusive: 2.58 µM
same,AC50,[16],active: 50 µM
CC(C)N(Cc1ccccc1)C(=O)C(C)(C)C,outcome,[1],inactive
same,outcome,[5],inactive
same,outcome,[15],inactive
same,AC50,[19],inconclusive: 50 µM
same,AC50,[16],inconclusive: 50 µM
CSC(=O)c1c(C(F)F)nc(C(F)(F)F)c(C(=O)SC)c1CC(C)C,AC50,[11],inconclusive: 20 µM
same,AC50,[12],inconclusive: 20 µM
same,AC50,[9],inconclusive: 20 µM
same,AC50,[15],inconclusive: 10 µM
same,AC50,[17],inconclusive: 100 µM
CCOC1Oc2ccc(OS(C)(=O)=O)cc2C1(C)C (stereo not given),AC50,[18],inconclusive: 51.2 µM
same,AC50,[12],inconclusive: 20 µM
same,outcome,[13],inactive
same,outcome,[14],inactive
same,AC50,[19],inconclusive: 24.8 µM
same,AC50,[16],inconclusive: 50 µM
CNC(=O)ON=C(C)SC,AC50,[7],inconclusive: 40.5 µM
same,outcome,[20],inactive
CC(C1CC1)C(O)(Cn1cncn1)c1ccc(Cl)cc1 (stereo not given),outcome,[18],inactive
same,AC50,[3],inconclusive: 0.208 µM
Cc1nc(N(C)C)nc(OC(=O)N(C)C)c1C,AC50,[4],inconclusive: 50 µM
same,AC50,[18],inconclusive: 35.9 µM
same,AC50,[13],inconclusive: 20 µM
same,outcome,[9],inactive
same,AC50,[14],inconclusive: 0.025 µM
same,outcome,[15],inactive
CCC(C)c1cc([N+](=O)[O-])cc([N+](=O)[O-])c1OC(=O)C=C(C)C (stereo not given),AC50,[1],inconclusive: 26.4 µM
CCOP(=S)(OCC)SCCSCC,AC50,[7],inconclusive: 90.1 µM
same,outcome,[2],inactive
same,outcome,[13],inactive
same,outcome,[3],inactive
CCOP(=S)(OCC)O/N=C(\C#N)c1ccccc1,AC50,[4],active: 32.5 µM
same,outcome,[5],inactive
same,outcome,[15],inactive
same,AC50,[17],inconclusive: 100 µM
same,outcome,[17],inactive
O=NN1CCCCCC1,outcome,[1],inactive

# Given with tabs: part of the list above.
structure (smiles)	measurement	setting	value
CCOC(=O)C(O)(c1ccc(Cl)cc1)c1ccc(Cl)cc1	AC50	[17]	inconclusive: 3.07 µM and inconclusive: 2.58 µM
same	AC50	[16]	active: 50 µM
CC(C)N(Cc1ccccc1)C(=O)C(C)(C)C	outcome	[1]	inactive
same	outcome	[5]	inactive
same	outcome	[15]	inactive
